This passage reports binding results from publication PMC3145617.

By UniProt entry, the sequences of proteins in these tests, tags left out.
UniProt Q24562: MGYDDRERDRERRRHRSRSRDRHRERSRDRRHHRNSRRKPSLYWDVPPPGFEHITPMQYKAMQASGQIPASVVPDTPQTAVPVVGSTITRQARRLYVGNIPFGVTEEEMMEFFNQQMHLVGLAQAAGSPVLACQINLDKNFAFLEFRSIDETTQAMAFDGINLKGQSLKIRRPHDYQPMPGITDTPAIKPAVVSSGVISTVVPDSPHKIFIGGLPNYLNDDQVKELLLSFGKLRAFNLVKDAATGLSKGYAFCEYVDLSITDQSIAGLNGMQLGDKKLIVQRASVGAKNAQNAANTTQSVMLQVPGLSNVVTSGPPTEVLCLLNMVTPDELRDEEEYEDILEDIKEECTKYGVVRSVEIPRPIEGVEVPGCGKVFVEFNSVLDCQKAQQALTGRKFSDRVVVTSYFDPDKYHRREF

No constants are given. Whether binding was seen depends on the method and setting. Binding seen in cells or lysates may run through a third protein. Some results given as binding are weak or reduced against the parent protein; the word gives no strength.

Common to all, as to experiment: co-IP; sonicated nuclear extract of w1 embryos (<24 hours); antibody linked protein AG beads; co-IP buffer 20 mM Hepes pH 7.5, 150 mM NaCl, 250 mM sucrose, 0.05% NP-40, 0.5% Triton-X 100, with RNAsin; 4°C overnight; blots probed with anti-eIF4E
Assay [1] deals with T1, Scute (Drosophila melanogaster (endogenous in embryos)) (UniProt P10084).
T1 sequence: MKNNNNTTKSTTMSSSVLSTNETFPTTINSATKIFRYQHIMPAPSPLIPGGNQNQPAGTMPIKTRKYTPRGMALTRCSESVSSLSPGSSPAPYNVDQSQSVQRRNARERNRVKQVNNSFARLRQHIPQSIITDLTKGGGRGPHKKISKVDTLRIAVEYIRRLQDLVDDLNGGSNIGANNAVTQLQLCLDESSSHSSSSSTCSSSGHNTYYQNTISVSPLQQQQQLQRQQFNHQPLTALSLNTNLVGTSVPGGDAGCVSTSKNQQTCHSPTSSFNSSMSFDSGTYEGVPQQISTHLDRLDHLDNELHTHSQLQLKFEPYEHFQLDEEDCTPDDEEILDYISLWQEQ

In assay [2] the target is T2, U1 snRNP protein U1-70K (Drosophila melanogaster (endogenous in embryos)) (UniProt P17133).
T2 sequence: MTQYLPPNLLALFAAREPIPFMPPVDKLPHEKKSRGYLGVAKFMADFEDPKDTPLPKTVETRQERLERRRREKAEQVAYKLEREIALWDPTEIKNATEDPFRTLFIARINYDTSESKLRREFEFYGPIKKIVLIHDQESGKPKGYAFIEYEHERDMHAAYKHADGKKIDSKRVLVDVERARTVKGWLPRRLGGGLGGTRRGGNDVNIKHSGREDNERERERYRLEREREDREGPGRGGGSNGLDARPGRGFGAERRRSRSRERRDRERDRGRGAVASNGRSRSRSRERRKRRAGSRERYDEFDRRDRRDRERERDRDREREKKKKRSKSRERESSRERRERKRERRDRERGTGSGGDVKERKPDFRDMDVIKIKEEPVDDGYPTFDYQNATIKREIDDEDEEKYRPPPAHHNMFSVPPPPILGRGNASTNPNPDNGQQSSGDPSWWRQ

In assay [3] the target is U2AF50 (Drosophila melanogaster (endogenous in embryos)) (UniProt Q24562).
The target in assay [4] is T3, Wilms' Tumor 1 Associated Protein Fl(2)d (Drosophila melanogaster (endogenous in embryos)) (UniProt Q9Y091).
T3 sequence: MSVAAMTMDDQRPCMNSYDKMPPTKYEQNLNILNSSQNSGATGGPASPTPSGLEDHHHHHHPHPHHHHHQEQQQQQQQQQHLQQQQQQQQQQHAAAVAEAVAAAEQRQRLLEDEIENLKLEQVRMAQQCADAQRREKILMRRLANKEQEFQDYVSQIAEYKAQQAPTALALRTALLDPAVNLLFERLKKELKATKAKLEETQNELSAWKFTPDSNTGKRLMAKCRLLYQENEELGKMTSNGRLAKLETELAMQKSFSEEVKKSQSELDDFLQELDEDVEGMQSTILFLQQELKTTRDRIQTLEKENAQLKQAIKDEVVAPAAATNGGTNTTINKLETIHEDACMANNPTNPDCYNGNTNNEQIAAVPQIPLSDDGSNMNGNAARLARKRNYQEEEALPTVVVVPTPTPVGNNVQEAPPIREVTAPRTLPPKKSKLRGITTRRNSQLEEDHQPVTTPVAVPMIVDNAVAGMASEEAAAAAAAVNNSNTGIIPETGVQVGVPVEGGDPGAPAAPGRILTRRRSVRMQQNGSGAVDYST

Assay [5] addresses T4, U2AF38 (Drosophila melanogaster (endogenous in embryos)) (UniProt Q94535).
T4 sequence: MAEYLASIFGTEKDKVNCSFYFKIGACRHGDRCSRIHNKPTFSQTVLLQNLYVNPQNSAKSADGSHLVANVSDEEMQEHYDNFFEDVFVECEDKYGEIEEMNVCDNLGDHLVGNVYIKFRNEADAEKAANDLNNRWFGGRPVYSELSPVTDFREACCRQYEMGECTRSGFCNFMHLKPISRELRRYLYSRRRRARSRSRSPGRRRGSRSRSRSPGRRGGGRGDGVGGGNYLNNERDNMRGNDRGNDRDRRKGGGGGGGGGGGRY

B1: eukaryotic translation initiation factor eIF4E (cap binding protein) (protein, UniProt P48598 1-259)
chain: MQSDFHRMKNFANPKSMFKTSAPSTEQGRPEPPTSAAAPAEAKDVKPKEDPQETGEPAGNTATTTAPAGDDAVRTEHLYKHPLMNVWTLWYLENDRSKSWEDMQNEITSFDTVEDFWSLYNHIKPPSEIKLGSDYSLFKKNIRPMWEDAANKQGGRWVITLNKSSKTDLDNLWLDVLLCLIGEAFDHSDQICGAVINIRGKSNKISIWTADGNNEEAALEIGHKLRDALRLGRNNSLQYQLHKDTMVKQGSNVKSIYTL
Regarding B1, the binding result in assay [1] was “no binding”; in assay [2] it was “binds”; in assay [3] it was “binds”; in assay [4], “binds”; in assay [5] it was “binds”.
